{"source": "the supplement of paper PMC5949888", "note": "Most values lie at the floor of the assay. Slopes are relative: functional sequences can read slightly below zero.", "data": [{"system": "Saccharomyces cerevisiae PS128 hsf1 delta, HSF1(1-493) fusion", "assay": "growth estimate (transactivation domain function in HSF1 fusion, heat-shock survival) (a.u. (slope of normalised read count over time)); higher = stronger growth at 37°C, i.e. more transactivation activity", "details": "library: random library", "values": [{"substance": "PDII", "growth estimate": "< -0.25"}, {"substance": "YPGWVIKPYMS", "growth estimate": "< -0.25"}, {"substance": "MFMGAPSASRRNMGLSNFIK", "growth estimate": "< -0.25"}, {"substance": "KGVTNKL", "growth estimate": "< -0.25"}, {"substance": "QMMVSRPRGRN", "growth estimate": "< -0.25"}, {"substance": "GGSECGSH", "growth estimate": "< -0.25"}, {"substance": "DGPASISPGVKLARGYKYSE", "growth estimate": "< -0.25"}, {"substance": "RRTSPSIGNEDRG", "growth estimate": "< -0.25"}, {"substance": "GTGGERRISLTIFKCKPAGT", "growth estimate": "< -0.25"}, {"substance": "DETP", "growth estimate": "< -0.25"}, {"substance": "RYPGLTVGMSG", "growth estimate": "< -0.25"}, {"substance": "VPTHRRINSLGQSIARLRTR", "growth estimate": "< -0.25"}, {"substance": "TLGWDMLGRGSIIVPKFRNP", "growth estimate": "< -0.25"}, {"substance": "VSAYVAGVESRIVAWFLVHA", "growth estimate": "< -0.25"}, {"substance": "WVSSTLHRGGACDMVVSPLS", "growth estimate": "< -0.25"}, {"substance": "SVLPARKSQLRMD", "growth estimate": "< -0.25"}, {"substance": "TEIRETRRLAWTQLSAVIAR", "growth estimate": "< -0.25"}, {"substance": "AVPSTLLLHFQDGAHV", "growth estimate": -0.243}, {"substance": "NPLEIAHLITRQGGPVPAST", "growth estimate": "< -0.25"}, {"substance": "WVIVVTVLRSEILRGLYSSE", "growth estimate": "< -0.25"}, {"substance": "GACA", "growth estimate": -0.242}, {"substance": "PHFSHLGEQLHWMLGKLWAA", "growth estimate": "< -0.25"}, {"substance": "PERDSLAVGRPEVVIVS", "growth estimate": "< -0.25"}, {"substance": "KLGTISTYCITLGS", "growth estimate": "< -0.25"}, {"substance": "IRMCLFVVNQSPEAEGCEGG", "growth estimate": "< -0.25"}, {"substance": "LIRVRTKMRICDLHWEGLAS", "growth estimate": "< -0.25"}, {"substance": "SGCYD", "growth estimate": "< -0.25"}, {"substance": "NILPPIEQARRSLGHNI", "growth estimate": -0.231}, {"substance": "ICSMDIAPD", "growth estimate": "< -0.25"}, {"substance": "ESGQHIFPSRV", "growth estimate": "< -0.25"}, {"substance": "CQSGSQFGEASLRHALGCGW", "growth estimate": "< -0.25"}, {"substance": "SKRTER", "growth estimate": "< -0.25"}, {"substance": "RGGAECYGVQGSGFIGGFF", "growth estimate": -0.246}, {"substance": "EEKIARCLADGRNPLKIIIP", "growth estimate": "< -0.25"}, {"substance": "RRTPSKEGRTCCECFPSAAW", "growth estimate": "< -0.25"}, {"substance": "YGSWHDLSHFRAWAFGLMVT", "growth estimate": "< -0.25"}, {"substance": "RAQQQCAWCVYERKIICKAR", "growth estimate": "< -0.25"}, {"substance": "GKVKEGFNLCLCVTEDIVSN", "growth estimate": -0.243}, {"substance": "YEFAPC", "growth estimate": "< -0.25"}, {"substance": "EIVKHGKLIARRGCQAQLLI", "growth estimate": "< -0.25"}, {"substance": "TFHGGVLQNLVRLVISQCPS", "growth estimate": "< -0.25"}, {"substance": "GIQRIGARNAYGGTLGTGST", "growth estimate": "< -0.25"}, {"substance": "PSAK", "growth estimate": "< -0.25"}, {"substance": "LCRCCR", "growth estimate": "< -0.25"}, {"substance": "WPRPLYTRSRKPSRTRSPPR", "growth estimate": "< -0.25"}, {"substance": "PKHVCVRL", "growth estimate": "< -0.25"}, {"substance": "DLSNNSFLKIQGLDPLRL", "growth estimate": "< -0.25"}, {"substance": "VFRVP", "growth estimate": "< -0.25"}, {"substance": "LRGRY", "growth estimate": "< -0.25"}, {"substance": "FFSTVRGPEGEFLGIPGFYR", "growth estimate": 10.8}, {"substance": "FMLSV", "growth estimate": "< -0.25"}, {"substance": "SNRRTLISYRSPRVRPGCLT", "growth estimate": -0.0802}, {"substance": "KKTVGWGKMSCRSRQNPRLP", "growth estimate": "< -0.25"}, {"substance": "IRVSCHPSFFRFHALASTSR", "growth estimate": "< -0.25"}, {"substance": "HFTVCI", "growth estimate": "< -0.25"}, {"substance": "VPERE", "growth estimate": "< -0.25"}, {"substance": "VAGM", "growth estimate": "< -0.25"}, {"substance": "WACVGCKAASYELDQETRLL", "growth estimate": "< -0.25"}, {"substance": "LRECRGHPVIRTIA", "growth estimate": "< -0.25"}, {"substance": "QRSRFTVRLGSCFGLPCTCD", "growth estimate": "< -0.25"}, {"substance": "YGGDNLLSE", "growth estimate": "< -0.25"}, {"substance": "DIWCL", "growth estimate": -0.151}, {"substance": "SFRVL", "growth estimate": "< -0.25"}, {"substance": "SVIRGEPVSPSVAGIPKPLT", "growth estimate": "< -0.25"}, {"substance": "VFALRCNQPF", "growth estimate": "< -0.25"}, {"substance": "YQKAFNLYGVWTLSRGGLHP", "growth estimate": "< -0.25"}, {"substance": "SGGRECHFGGPLDYVRCQHI", "growth estimate": "< -0.25"}, {"substance": "IGVQAKVRGDLVW", "growth estimate": "< -0.25"}, {"substance": "AVERSESKFG", "growth estimate": "< -0.25"}, {"substance": "WQELNICARLGQKKPRSSAE", "growth estimate": "< -0.25"}, {"substance": "ILSV", "growth estimate": "< -0.25"}, {"substance": "RREPDV", "growth estimate": -0.246}, {"substance": "WAY", "growth estimate": "< -0.25"}, {"substance": "QESHEDALPEICKRYLAVPS", "growth estimate": "< -0.25"}, {"substance": "CGSCSANIPPYHRTGMGAHA", "growth estimate": "< -0.25"}, {"substance": "LDILYGSTQWVPTP", "growth estimate": "< -0.25"}, {"substance": "VIPLVPQ", "growth estimate": "< -0.25"}, {"substance": "KLCCAHLLSAGCSLNVTSAG", "growth estimate": "< -0.25"}, {"substance": "SRE", "growth estimate": "< -0.25"}, {"substance": "RGRTRLSSLYIEGPAPSRVV", "growth estimate": "< -0.25"}, {"substance": "SSHC", "growth estimate": "< -0.25"}, {"substance": "AKTLSYAFSLDLA", "growth estimate": 0.393}, {"substance": "AAPYDCNSAMVDFPALLRSC", "growth estimate": -0.237}, {"substance": "ERRAITTFICG", "growth estimate": "< -0.25"}, {"substance": "RVQVIILGDPSGATRSDYLC", "growth estimate": "< -0.25"}, {"substance": "FRPGLARTISARTARLRFSI", "growth estimate": "< -0.25"}, {"substance": "EVQGKSPWQD", "growth estimate": "< -0.25"}, {"substance": "LDGFSPKLGLRRKTAYRPPM", "growth estimate": "< -0.25"}, {"substance": "GPLPDIGMCDVE", "growth estimate": "< -0.25"}, {"substance": "SEKREKTNW", "growth estimate": "< -0.25"}, {"substance": "RYAEELLLGTAGAKACITRL", "growth estimate": "< -0.25"}, {"substance": "SSSRGRISHLTGFSIVRIKA", "growth estimate": "< -0.25"}, {"substance": "VGVRLYPIVF", "growth estimate": "< -0.25"}, {"substance": "TVRHTHSKSLLGLLWNVGLF", "growth estimate": "< -0.25"}, {"substance": "ALSR", "growth estimate": "< -0.25"}, {"substance": "TRKLI", "growth estimate": -0.246}, {"substance": "KGVVVPRVYRSSLCAERVGN", "growth estimate": "< -0.25"}, {"substance": "SPFII", "growth estimate": "< -0.25"}, {"substance": "RRQVILVVPEKDNEDNESL", "growth estimate": "< -0.25"}, {"substance": "SVSCILVDLPRV", "growth estimate": -0.246}, {"substance": "RLVQPARD", "growth estimate": "< -0.25"}, {"substance": "SGGSFGPDHTRCYFRKRQLD", "growth estimate": "< -0.25"}, {"substance": "GYDA", "growth estimate": "< -0.25"}, {"substance": "IQYLLNPLATSYEHMRLVIC", "growth estimate": "< -0.25"}, {"substance": "LTPSSTCSFGSSFLLRLRSI", "growth estimate": "< -0.25"}, {"substance": "GRDRAH", "growth estimate": "< -0.25"}, {"substance": "STTGDLCSSASRSGHTFCQS", "growth estimate": "< -0.25"}, {"substance": "LPWSGR", "growth estimate": -0.0376}, {"substance": "PLSTPSAAAVRRLNGVRVKI", "growth estimate": "< -0.25"}, {"substance": "VLVHW", "growth estimate": "< -0.25"}, {"substance": "TQKLYQSLRESPGRACYERH", "growth estimate": "< -0.25"}, {"substance": "IGDSS", "growth estimate": "< -0.25"}, {"substance": "LRIC", "growth estimate": "< -0.25"}, {"substance": "KHCTLRPLVPLRSYRCDFLN", "growth estimate": "< -0.25"}, {"substance": "DQPLKFFIRDVRARAGYGRE", "growth estimate": "< -0.25"}, {"substance": "EEHLQKGFNFHVCQLNQ", "growth estimate": "< -0.25"}, {"substance": "LGSC", "growth estimate": "< -0.25"}, {"substance": "GFHRRGTGRATARIRLSNQP", "growth estimate": "< -0.25"}, {"substance": "VRLDERGRMYVNFLYEIIGD", "growth estimate": "< -0.25"}, {"substance": "IEFSDGACWSRLSSRHACLG", "growth estimate": "< -0.25"}, {"substance": "RHLSFSLFGKQRMGSPGRGS", "growth estimate": "< -0.25"}, {"substance": "SRDLPHGRTFRNILRQVAI", "growth estimate": "< -0.25"}, {"substance": "VLSAVTWQIWRALLESTRAP", "growth estimate": "< -0.25"}, {"substance": "SSWGRGNNVLVSGVIMWNSR", "growth estimate": "< -0.25"}, {"substance": "DDTLYLLVSFPRHRTICNRG", "growth estimate": "< -0.25"}, {"substance": "LLVG", "growth estimate": "< -0.25"}, {"substance": "YSTNLIGLHV", "growth estimate": "< -0.25"}, {"substance": "LSTV", "growth estimate": "< -0.25"}, {"substance": "CSTIMPFVRGRRGLGSVC", "growth estimate": "< -0.25"}, {"substance": "AVRHLFPMR", "growth estimate": "< -0.25"}, {"substance": "EKFERTHAL", "growth estimate": "< -0.25"}, {"substance": "SGRLCSLGRVGGAISFSPNV", "growth estimate": "< -0.25"}, {"substance": "YDISEIRAWLRDSRRAAPSP", "growth estimate": "< -0.25"}, {"substance": "SCAYDCSSSYLPRELP", "growth estimate": "< -0.25"}, {"substance": "CVKVLTLT", "growth estimate": "< -0.25"}, {"substance": "ARLKVERSGFPC", "growth estimate": "< -0.25"}, {"substance": "DNRDRYFLARRSIELKTSAR", "growth estimate": "< -0.25"}, {"substance": "ISACS", "growth estimate": "< -0.25"}, {"substance": "FQEPSRSIGFD", "growth estimate": "< -0.25"}, {"substance": "QTEHFQVR", "growth estimate": "< -0.25"}, {"substance": "FWFTSDLEDCVRRLKTGSLN", "growth estimate": "< -0.25"}, {"substance": "HREFRSAG", "growth estimate": "< -0.25"}, {"substance": "VLIDRFLGHTYFRESRDFCL", "growth estimate": 0.142}, {"substance": "TREGELRRVCCASKNPRDAD", "growth estimate": "< -0.25"}, {"substance": "LKVALAGLGFAAWIQSDCEH", "growth estimate": "< -0.25"}, {"substance": "EGYKILLSAMRISPPIQL", "growth estimate": "< -0.25"}, {"substance": "GLLGKVAER", "growth estimate": "< -0.25"}, {"substance": "LVIKQHNYSTITGGP", "growth estimate": "< -0.25"}, {"substance": "VGQIWVQMRCRV", "growth estimate": "< -0.25"}, {"substance": "TPIEMKGEVSSRFGVSRLRA", "growth estimate": "< -0.25"}, {"substance": "WNDLH", "growth estimate": "< -0.25"}, {"substance": "RSDVSRI", "growth estimate": "< -0.25"}, {"substance": "VDGTLFASPRMV", "growth estimate": -0.177}, {"substance": "YEWMVPWTSQTGSTAT", "growth estimate": "< -0.25"}, {"substance": "ILTIGGEWT", "growth estimate": "< -0.25"}, {"substance": "NWFRYRIRIMKRKCSLVQMS", "growth estimate": "< -0.25"}, {"substance": "LRSTTLAGMVLLQSF", "growth estimate": "< -0.25"}, {"substance": "SGRQTFLVKRDSNQDSA", "growth estimate": "< -0.253"}, {"substance": "GSRSVHAGDMGLLRGACWPR", "growth estimate": "< -0.25"}, {"substance": "PRCIGPDGG", "growth estimate": "< -0.25"}]}]}
